No constants are given. Whether binding was seen depends on the method and setting. Some binding calls cover weakened binding; strength is not graded here.

Protein sequences, listed by entry. Tags and fused reporters are not part of them. Residues count along the entry.
UniProt Q01973, residues 30-403: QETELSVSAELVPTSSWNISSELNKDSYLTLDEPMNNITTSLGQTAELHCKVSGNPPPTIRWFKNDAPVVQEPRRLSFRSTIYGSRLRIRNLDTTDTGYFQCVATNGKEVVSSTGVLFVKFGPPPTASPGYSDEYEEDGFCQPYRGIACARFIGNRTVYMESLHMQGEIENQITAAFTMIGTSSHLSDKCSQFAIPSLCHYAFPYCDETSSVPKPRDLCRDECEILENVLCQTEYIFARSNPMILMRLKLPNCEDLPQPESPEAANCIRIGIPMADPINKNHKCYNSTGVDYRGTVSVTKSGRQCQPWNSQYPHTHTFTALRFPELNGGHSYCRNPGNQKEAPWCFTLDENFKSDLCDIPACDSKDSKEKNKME

The target in this assay is FITC-labeled ROR1 antigen (UniProt Q01973). Kind of assay: FACS, FCHO cell clones double-positive for PE anti-human kappa antibody and FITC-labeled ROR1. Background: A flow cytometer gives signals particle by particle.

B1: Positive clone with the VH of SEQ ID NO: 28 and the kappa LC of SEQ ID NO: 29 (antibody, V domains shown)
VH: QMQLVQSGPGLVKPSGTLSLTCAVSGGSISGSNWWSWVRQPPGKGLEWIGEIFHSGSTNYNPSLKSRVTISVDKSKNQFSLNLNSVTAADTAVYYCAKDRGGYYDSSGYSHWGQGTMVTVSS
VL: DIVMTQSPSSVSASVGGRVTITCRASQGISSWLAWYQQKPGRAPKLLIYAASSLQSGVPSRFSGSGSGTDFTLTISSLQPEDFATYYCQQANSFPITFGQGTRLEIKR
Turning to B1, the binding entry is reported as “binds”.

Values taken from patent publication US20230124855A1.
